## Primary screen of a compound library

The chains behind the UniProt entries cited, without tags or fusion partners.
UniProt I6X8D2, whole entry: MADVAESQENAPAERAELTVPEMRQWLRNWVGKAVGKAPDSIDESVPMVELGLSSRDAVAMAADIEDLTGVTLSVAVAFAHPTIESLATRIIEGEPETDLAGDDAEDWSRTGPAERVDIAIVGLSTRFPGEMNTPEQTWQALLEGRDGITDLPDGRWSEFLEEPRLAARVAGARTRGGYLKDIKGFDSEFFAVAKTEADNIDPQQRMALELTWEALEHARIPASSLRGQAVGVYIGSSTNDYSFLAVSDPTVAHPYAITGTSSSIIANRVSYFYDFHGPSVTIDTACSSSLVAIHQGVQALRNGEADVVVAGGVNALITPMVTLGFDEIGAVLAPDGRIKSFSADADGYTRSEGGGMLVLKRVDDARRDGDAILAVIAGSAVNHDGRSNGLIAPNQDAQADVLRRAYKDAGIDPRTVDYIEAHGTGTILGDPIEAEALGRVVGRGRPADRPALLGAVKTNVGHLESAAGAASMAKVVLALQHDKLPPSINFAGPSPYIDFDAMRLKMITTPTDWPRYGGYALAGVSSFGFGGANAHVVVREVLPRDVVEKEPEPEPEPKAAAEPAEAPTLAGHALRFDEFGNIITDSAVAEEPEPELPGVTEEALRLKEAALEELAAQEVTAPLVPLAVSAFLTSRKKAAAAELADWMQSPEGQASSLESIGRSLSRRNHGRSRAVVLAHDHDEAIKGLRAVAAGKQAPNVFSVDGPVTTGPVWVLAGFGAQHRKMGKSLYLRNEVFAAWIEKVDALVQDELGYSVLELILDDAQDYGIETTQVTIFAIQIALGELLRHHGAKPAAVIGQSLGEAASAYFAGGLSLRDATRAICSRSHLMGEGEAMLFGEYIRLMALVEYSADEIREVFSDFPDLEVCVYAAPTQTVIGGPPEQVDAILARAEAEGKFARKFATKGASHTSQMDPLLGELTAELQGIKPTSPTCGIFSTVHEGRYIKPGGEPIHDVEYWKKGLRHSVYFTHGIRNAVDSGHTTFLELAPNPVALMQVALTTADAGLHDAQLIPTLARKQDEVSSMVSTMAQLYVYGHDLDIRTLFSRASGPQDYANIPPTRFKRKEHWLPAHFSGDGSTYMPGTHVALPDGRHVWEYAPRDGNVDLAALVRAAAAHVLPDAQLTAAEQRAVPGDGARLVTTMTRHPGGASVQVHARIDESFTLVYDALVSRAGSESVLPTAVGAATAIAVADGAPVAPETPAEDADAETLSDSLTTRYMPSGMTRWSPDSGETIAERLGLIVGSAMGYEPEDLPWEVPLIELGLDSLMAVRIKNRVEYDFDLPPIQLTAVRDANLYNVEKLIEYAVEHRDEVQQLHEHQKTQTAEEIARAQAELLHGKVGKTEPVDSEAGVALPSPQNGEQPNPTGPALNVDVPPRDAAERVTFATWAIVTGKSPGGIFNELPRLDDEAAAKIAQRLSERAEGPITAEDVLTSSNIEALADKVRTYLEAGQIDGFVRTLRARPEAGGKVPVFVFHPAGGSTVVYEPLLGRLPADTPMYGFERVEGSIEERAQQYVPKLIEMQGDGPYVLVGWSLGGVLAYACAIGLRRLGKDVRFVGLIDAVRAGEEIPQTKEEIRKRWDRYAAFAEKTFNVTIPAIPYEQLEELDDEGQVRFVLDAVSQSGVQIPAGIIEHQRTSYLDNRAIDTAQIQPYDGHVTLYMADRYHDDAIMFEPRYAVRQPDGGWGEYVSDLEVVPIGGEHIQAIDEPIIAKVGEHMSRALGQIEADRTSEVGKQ

Data taken from ChEMBL document CHEMBL3988442, “University of Dundee, Small-Polar-MMV Screening Library” (2021).

Results are given as percent effect.
The record does not define 0% and 100%; most values in the screen are far below 50% and negative numbers occur (in some assays of this library far below -100).
Compounds were drawn at random from those tested, without regard to their results.

Toxoplasma: 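Assay of Toxoplasma gondii numbers, read through their beta-galactosidase reporter with a colour substrate. Concentration: 10 µM. Higher reads as fewer parasites (inferred from which compounds were picked for retests). Of about 67,000 compounds tested this way, about 260 (0.38%) reached 50% or more in at least one test.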
Pks13 thioesterase: 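Polyketide synthase Pks13, Mycobacterium tuberculosis (UniProt I6X8D2). Enzyme assay of the thioesterase domain of polyketide synthase 13; the read-out is not stated. Concentration: 30 µM. Higher reads as stronger inhibition (inferred from which compounds were picked for retests). Size under these conditions: about 67,000 compounds, about 300 of them at 50% or above in at least one test.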

- CNC(=O)[C@@H]1C[C@@H](N)CN1c1nnc(-c2ccccc2)s1 : Toxoplasma: -2.22%; Pks13 thioesterase: 8.581%
- COc1ccc(CN(C)C(=O)CCc2c(C)nc(C)[nH]c2=O)cc1OC : Toxoplasma: -7.211%; Pks13 thioesterase: -4.504%
- CC(=O)N1CCCc2ccc(S(=O)(=O)N3CCCCC3C)cc21 (centres unmarked) : Toxoplasma: 14.02%; Pks13 thioesterase: -11.41%
- CCn1ccc(-c2cc(C(=O)O)n3ncc(Br)c3n2)n1 : Toxoplasma: 3.42%; Pks13 thioesterase: 17.47%
- CCC(CO)N(Cc1ccccn1)Cc1c[nH]nc1-c1ccc(F)cc1 (centres unmarked) : Toxoplasma: 3.54%; Pks13 thioesterase: -11.44%
- COc1ccccc1OC1CCN(C(=O)CCCN2CCOCC2)CC1 : Toxoplasma: 0.4507%; Pks13 thioesterase: -36.26%
- Cc1ccc(CNC(=O)CN2CCOC(Cn3cncn3)C2)s1 (centres unmarked) : Toxoplasma: 10.1%; Pks13 thioesterase: -11.73%
- O=C(c1cnnn1-c1ccccc1)N1CCCC(c2ccn[nH]2)C1 (centres unmarked) : Toxoplasma: -12.77%; Pks13 thioesterase: 23.61%
- COc1cccc2[nH]cc(CCNC(=O)N3CCCC3CO)c12 (centres unmarked) : Toxoplasma: 5.841%; Pks13 thioesterase: -7.939%
- CC(C)n1nccc1NC(=O)NCCc1nc2ccc(F)cc2n1C : Toxoplasma: 10.74%; Pks13 thioesterase: -18.61%
- O=C(O)C(F)(F)F.[H][C@@]12OCCN(C(C)=O)[C@@]1([H])CC[C@H]2OCCCn1cccn1 : Toxoplasma: 4.698%
- Cc1ncc2c(n1)CCN(C(=O)Cc1c(C)noc1C)C2 : Toxoplasma: -2.072%; Pks13 thioesterase: -9.97%
- Cc1cc(C(=O)N2CCCC3(COCCN(c4ncccn4)C3)C2)[nH]n1 (centres unmarked) : Pks13 thioesterase: -6.975%
- Cc1cccc(CN2CCc3[nH]nc(C(=O)N(C)C)c3C2)n1 : Pks13 thioesterase: -4.687%
- COCC1c2c(cnn2C)CCN1C(=O)c1ccc2c(c1)OCO2 (centres unmarked) : Toxoplasma: -6.993%; Pks13 thioesterase: -32%
- CS(=O)(=O)NC[C@]12COC[C@H]1CN(C(=O)N1CCCC1)C2 : Pks13 thioesterase: -24.46%
- c1cnc(N2CCC3(COCc4cnc(N5CCOCC5)nc43)C2)nc1 (centres unmarked) : Toxoplasma: 5.177%; Pks13 thioesterase: 7.196%
- CN(Cc1ccco1)C(=O)CN1CCc2ccccc2C1 : Toxoplasma: 4.054%; Pks13 thioesterase: -10%
- CNC(=O)c1ccc(C(=O)N2CCCC2c2c(C)nn(C)c2C)cn1 (centres unmarked) : Toxoplasma: 16%; Pks13 thioesterase: -11.58%
- Cc1cnn(CC2CN(CCc3ccccn3)CCO2)c1 (centres unmarked) : Toxoplasma: 0.8283%; Pks13 thioesterase: -3.125%
- Brc1ccc(CNCc2nnc3n2CCC3)s1.Cl : Toxoplasma: -1.622%
- CC(CNC(=O)C1(c2ccc(F)cc2)CC1)CN1CCCC1=O (centres unmarked) : Toxoplasma: 4.759%; Pks13 thioesterase: -4.862%
- O=C(O)C(F)(F)F.[H][C@@]12CCCO[C@]1([H])[C@H](NC(=O)CC1CC1)CN(Cc1ccc(F)cc1)C2 : Toxoplasma: 8.338%
- CN1CCN(S(=O)(=O)c2cccc(S(=O)(=O)C3CCS(=O)(=O)C3)c2)CC1 (centres unmarked) : Pks13 thioesterase: 1.385%
- CC(=O)N1CCC2(CCN(C(=O)c3cccc(C(F)(F)F)c3)CC2)C1 : Toxoplasma: 7.313%; Pks13 thioesterase: -3.683%

Some entries from above, unchanged:

Result for CN1CCN(S(=O)(=O)c2cccc(S(=O)(=O)C3CCS(=O)(=O)C3)c2)CC1 (centres unmarked) was Pks13 thioesterase: 1.385%.
Result for Brc1ccc(CNCc2nnc3n2CCC3)s1.Cl was Toxoplasma: -1.622%.